According to PubChem BioAssay AID1347076 (National Center for Advancing Translational Sciences (NCATS), 2019):
Out of some 400,000 compounds screened, about 13,000 (3.2%) were called active. The inconclusive results got no clear call from the source; some entries with a clear call stand among them for comparison. Calls follow the shape of the dose curve; as a rule, active = well fitted cell-killing curve with a large enough effect; inconclusive = small, poorly fitted or top-dose-only effect, or effect the other way; inactive = flat fitted curve, though single readings scatter. Potencies of inconclusive entries are doubtful fits and often do not repeat.

experiment: qHTS assay for MDR1-selective chemotherapeutics: Primary screen using the drug-selected MDR subline cells KB-V1; details: KB-V1 MDR cells viability, CellTiter-Glo, 72 h; activity change, negative = cytotoxicity: at 46.1 µM (top of the series); also: nearly all actives have a fitted effect of over 60% in size
Outline: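 Cytotoxicity via CellTiter-Glo luminescence after 72 h compound exposure at 37 degrees C. Cells: drug-selected KB-V1 line, DMEM phenol-red free plus 10% FBS. Compounds tested at multiple concentrations; normalized data fitted to concentration-effect curves.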
% is scaled to controls: 0 for no effect and ±100 for the full control effect; potency is read from the fitted curve at half-maximal effect.

| Structure (SMILES) | Potency | activity change, negative = cytotoxicity |
| --- | --- | --- |
| Cc1ccc(CNC(=O)C2CCC(=O)N(Cc3cccc(C(F)(F)F)c3)C2)o1 (configuration not stated) | inconclusive: 18.4 µM [cytotoxic, single point] | – |
| COC(=O)C1NN=C(C(=O)c2ccccc2)C1c1ccccc1 (configuration not stated) | active: 14.6 µM | – |
| C/C(=C1/C=Nc2ccccc21)c1ccc(N(C)C)cc1 | inconclusive: 23.1 µM [cytotoxic, single point] | – |
| c1ccc(C2[C@H]3CN(Cc4cccnc4)[C@H](c4ccccc4)C34CC2(c2cccnc2)C4)cc1 (some centres not stated) | active: 20.6 µM | – |
| NNC(=O)CNC(c1ccccc1)c1cc(Cl)ccc1NC(=O)c1ccccc1 (configuration not stated) | inconclusive: 2.06 µM [rising, full curve] | – |
| O=C(NCCc1ccccc1)c1cnc2ccccc2n1 | inactive | – |
| CC(C)C[C@H]1CN(CCCC[C@H]2CNC(=O)C(=O)N2Cc2ccccc2)C(=O)C(=O)N1CCc1ccc(O)cc1 | inactive | – |
| CCS(=O)(=O)Nc1ccc(C2=NN(C(=O)c3ccco3)C(c3ccco3)C2)cc1 (configuration not stated) | inconclusive: 20.6 µM [cytotoxic, single point] | – |
| NNc1nc2c(Cl)c(Cl)ccc2s1 | inactive | – |
| COc1ccc(C(=O)/C=C2/c3ccccc3CC(C)(C)N2C)cc1OC | inconclusive: 20.6 µM [cytotoxic, single point] | – |
| COc1ccc(OC)c(NC(=O)CS(=O)(=O)c2ccccc2)c1 | active: 18.4 µM | – |
| Cc1ncc(CO)c2c1Oc1nc(-c3ccc(Cl)cc3)nc(SCC(=O)N3CCCCC3)c1C2 | inconclusive: 20.6 µM [rising, single point] | – |
| O=C(O)/C=C\C(=O)Nc1ccccc1C#Cc1ccc(Br)cc1 | inactive | – |
| O=C(NCc1cc(Br)cc(Br)c1OC(=O)c1ccccc1[N+](=O)[O-])c1ccccc1 | inconclusive: 29.1 µM [cytotoxic, single point] | – |
| Cc1ccc(/C=C2/C(=N)N3N=C(CC(=O)N4CCCC4)SC3=NC2=O)o1 | inconclusive: 29.1 µM [rising, single point] | – |
| CCCCCN(C(=O)CCC(=O)OCc1cccc(Cl)c1)c1c(N)n(CCCC)c(=O)[nH]c1=O | inactive | – |
| O=C(CN1CCN(S(=O)(=O)c2ccc(Br)cc2)CC1)Nc1ccccc1F | inactive | – |
| COC(=O)Cc1ccc(NC(=S)N2CCN(c3cccc(O)c3)CC2)cc1 | inactive | – |
| Cc1[nH]nc(S(=O)CC(=O)O)c1[N+](=O)[O-] (configuration not stated) | inconclusive: 0.461 µM [rising, full curve, poor fit] | – |
| Cc1nnc(NC(=O)C2CCN(S(=O)(=O)c3ccc(F)c(F)c3)CC2)o1 | inactive | – |
| Cn1c(=O)n(C)c2cc(S(=O)(=O)Nc3cc(Cl)ccc3O)ccc21 | inconclusive: 18.4 µM [cytotoxic, single point] | – |
| OCCCN1CCN(CCOc2ccccc2-c2ccccc2)CC1 | – | inconclusive: -13.8% |
| O=C(NNC(=O)c1cc(-c2ccccc2)nc2ccccc12)Nc1cccc(Cl)c1 | inconclusive: 32.6 µM [cytotoxic, single point] | – |

| Structure (SMILES) | Potency | activity change, negative = cytotoxicity |
| --- | --- | --- |
| O=C1CC(N2CCN(c3ncccn3)CC2)C(=O)N1CCc1ccccc1 (configuration not stated) | inconclusive: 8.2 µM [cytotoxic, partial curve] | – |
| COc1cc(-c2nc3ccccn3c2NCc2ccccc2)ccc1SC1CCCCC1 | inconclusive: 29.1 µM [cytotoxic, single point] | – |
| O=C(c1ccc(Cl)c(S(=O)(=O)N2CCCCCC2)c1)N1CCN(c2ccc(O)cc2)CC1 | inconclusive: 23.1 µM [cytotoxic, single point] | – |
| Cc1cc(C)cc(C(=O)OCC(=O)Nc2cccc(S(=O)(=O)NC3=NCCCCC3)c2)c1 | active: 16.4 µM | – |
| C[C@H](CO)N1C[C@H](C)[C@@H](CN(C)S(=O)(=O)c2ccccc2F)Oc2ncc(C#Cc3cccnc3)cc2C1=O | inconclusive: 29.1 µM [rising, single point] | – |
| Cc1ccccc1NC(=O)C1CCN(S(=O)(=O)c2cccs2)CC1 | inconclusive: 20.6 µM [cytotoxic, single point] | – |
| Cc1ccc(C)c(CC(=O)N2CCCC(c3cc(C(=O)Nc4ccccc4Cl)no3)C2)c1 (configuration not stated) | inconclusive: 16.4 µM [cytotoxic, partial curve, poor fit] | – |
| Cc1ccc(-n2cnc(N)c2C(=O)c2cccc([N+](=O)[O-])c2)cc1 | inconclusive: 23.1 µM [cytotoxic, single point] | – |
| COc1ccc(NC(=O)c2oc3ccc(S(=O)(=O)N4CCC5(CC4)OCCO5)cc3c2C)cc1 | inconclusive: 29.1 µM [cytotoxic, partial curve, poor fit] | – |
| Cc1ccc(Cn2cccc(NC(=O)NCc3ccccc3)c2=O)cc1 | inconclusive: 18.4 µM [cytotoxic, partial curve] | – |
| CN(CC(=O)Nc1ccc(S(=O)(=O)N(C)C)cc1)Cc1ccc(C(F)(F)F)cc1 | inconclusive: 13 µM [cytotoxic, partial curve] | – |
| CCOc1ccc(Nc2oc(-c3ccccc3Cl)nc2C#N)cc1 | inconclusive: 16.4 µM [cytotoxic, partial curve] | – |
| N#Cc1c(-c2ccc(F)cc2)cc(C2CC2)nc1SCC(=O)c1cccs1 | inconclusive: 1.84 µM [cytotoxic, partial curve, poor fit] | – |
| O=C(Nc1cc(Cl)ccc1Oc1ccccc1)C1=COCCO1 | inconclusive: 18.4 µM [cytotoxic, single point] | – |
| O=C(NCc1ccc(Cl)cc1)C1CCN(c2nn3cc(-c4ccc(F)cc4)nc3s2)CC1 | inactive | – |
| O=C(Nc1cccc(/C=C/c2ccccn2)c1)c1ccc(-n2cncn2)c([N+](=O)[O-])c1 | inconclusive: 18.4 µM [cytotoxic, single point] | – |
| O=C(N/N=C/c1ccc(Cl)cc1)c1cc2c(s1)-c1ccccc1CC2 | inconclusive: 23.1 µM [cytotoxic, partial curve, poor fit] | – |
| CC(Oc1ccccc1F)c1nnc(SCC(=O)N(c2ccccc2)C2CCS(=O)(=O)C2)o1 (configuration not stated) | inconclusive: 29.1 µM [cytotoxic, single point] | – |
| CNC(=O)COc1ncnc2sccc12 | inconclusive: 29.1 µM [rising, single point] | – |
| O=S(=O)(c1cccc(S(=O)(=O)N2CCCC2)c1)c1cccc(S(=O)(=O)N2CCCC2)c1 | inconclusive: 2.06 µM [cytotoxic, full curve, poor fit] | – |
| O=C(c1cc(-c2ccco2)nn1-c1cccc(Cl)c1)N1CCCCC1 | inconclusive: 29.1 µM [cytotoxic, partial curve, poor fit] | – |
| COc1ccc(S(=O)(=O)N2CCN(C(=O)c3c(C)nn(-c4ccccc4)c3Cl)CC2)cc1 | inconclusive: 20.6 µM [cytotoxic, partial curve, poor fit] | – |
| CCCNC(=O)CCC(=O)N1Cc2cccc(OC)c2Oc2ncccc21 | inactive | – |

| Structure (SMILES) | Potency | activity change, negative = cytotoxicity |
| --- | --- | --- |
| COc1cccc(-c2cc3c(=O)n(-c4ccccc4)c(=S)[nH]c3s2)c1 | inactive | – |
| O=C(c1ccc2c(c1)OCCO2)N1CCCCC1 | inconclusive: 16.4 µM [rising, partial curve] | – |
| CC(=O)c1cccc(NC(=O)CN2C(=O)CCc3cc(S(=O)(=O)N4CCCCC4)ccc32)c1 | inactive | – |
| CNC(=O)c1ccsc1NC(=O)c1ccc(S(=O)(=O)N2CCCc3ccccc32)cc1 | inconclusive: 2.59 µM [cytotoxic, full curve, poor fit] | – |
| CC(C)C(=O)Nc1cccc(C(=O)Nc2nnc(C(C)(C)C)s2)c1 | inconclusive: 0.0046 µM [cytotoxic, full curve, poor fit] | – |
| CCOC(=O)C(CCSC)NC(=O)CN (configuration not stated) | inactive | – |
| COc1cc2cnc(-c3ccccc3)c(-c3cc(OC)c(OC)c(OC)c3)c2cc1OC | inconclusive: 29.1 µM [cytotoxic, single point] | – |
| CC(C)N1C(=O)c2ccc(C(=O)O)cc2C1=O | inconclusive: 23.1 µM [rising, partial curve, poor fit] | – |
| COc1cccc2cc(C(=O)Nc3ccc(CC(=O)O)cc3)c(=O)oc12 | inactive | – |
| CCN(CC(=O)Nc1ccc2c(c1)OCCO2)Cc1nc2cc(Cl)ccc2c(=O)[nH]1 | active: 20.6 µM | – |
| Cn1c(=O)n(C)c2cc(S(=O)(=O)NCCc3ccccc3)ccc21 | inconclusive: 29.1 µM [cytotoxic, single point] | – |
| CC/C(C)=N/Nc1cccc([N+](=O)[O-])c1 | inactive | – |
| Cn1c(=O)c2[nH]c(CCCCCc3nc4ccccc4[nH]3)nc2n(C)c1=O | inconclusive: 20.6 µM [cytotoxic, partial curve, poor fit] | – |
| CCNC(=S)NNC(=O)c1csc(C(C)C)c1 | active: 20.6 µM | – |
| CN(C)c1ccc(CN(C(=O)C2COc3ccccc3O2)C2CCS(=O)(=O)C2)cc1 (configuration not stated) | active: 18.4 µM | – |
| O=Cc1ccc(C(=O)OCC(=O)NC(=O)Nc2ccccc2F)cc1 | inactive | – |
| COc1ccc(/C=N/NC(=O)CNc2ccc(Br)cc2)c(C(=O)O)c1OC | inconclusive: 29.1 µM [rising, single point] | – |
| CCC(=O)N(CCCN(C)C)c1nc(-c2cc(OC)ccc2OC)cs1 | inconclusive: 10.3 µM [cytotoxic, partial curve, poor fit] | – |
| CCOC(=O)C1CCN(Cc2ccc(Cl)c(Cl)c2)CC1 | inactive | – |
| NC(=O)c1sc(-c2ccsc2)cc1NS(=O)(=O)c1ccc(C(F)(F)F)cc1 | inconclusive: 16.4 µM [cytotoxic, single point] | – |
| N/C(=N\OC(=O)COc1ccc(Cl)cc1)c1cccnc1 | inconclusive: 0.0058 µM [cytotoxic, full curve, poor fit] | – |

By substructure: the compounds so far containing a CF3 group.

| Structure (SMILES) | Potency | activity change, negative = cytotoxicity |
| --- | --- | --- |
| Cc1ccc(CNC(=O)C2CCC(=O)N(Cc3cccc(C(F)(F)F)c3)C2)o1 (configuration not stated) | inconclusive: 18.4 µM [cytotoxic, single point] | – |
| CN(CC(=O)Nc1ccc(S(=O)(=O)N(C)C)cc1)Cc1ccc(C(F)(F)F)cc1 | inconclusive: 13 µM [cytotoxic, partial curve] | – |
| NC(=O)c1sc(-c2ccsc2)cc1NS(=O)(=O)c1ccc(C(F)(F)F)cc1 | inconclusive: 16.4 µM [cytotoxic, single point] | – |
